According to article PMC3834177, “Investigation into CYP3A4-mediated drug–drug interactions on midostaurin in healthy volunteers” (Cancer Chemotherapy and Pharmacology, 2013):

Columns and labels:
[1] = Midostaurin PK when administered with rifampicin; conditions: human, in vivo
Experimental: These endogenous molecules served as exploratory biomarkers for CYP3A4 activity in vivo [21, 22].
A point estimate and the corresponding 90 % CI for the treatment effect (test vs reference) were calculated. These were anti-logged to obtain the GMR and respective 90 % CI. […] The median difference was estimated with the Hodges–Lehmann estimator and its respective exact two-sided 90 % CI. All formal comparative statistical analyses were performed using SAS software.
The concentration of ketoconazole in plasma was assessed using a validated LC–MS/MS assay with an LLOQ of 50.0 ng/mL (WuXi Pharmatech Co, Ltd, China). The concentration of rifampicin in plasma was measured using a validated LC–MS/MS assay with an LLOQ of 5.0 ng/mL (SGS, Cephac Europe, SAS). Plasma concentrations of midazolam and its metabolite 1′-hydroxymidazolam, which is generated by CYP3A4 and CYP3A5 in humans, were measured using a validated LC–MS/MS assay with an LLOQ of ≈0.100 ng/mL (SGS, Cephac Europe, SAS). The plasma concentration of 4β-hydroxycholesterol was measured using a validated LC–MS/MS assay with an LLOQ of 3.0 ng/mL (SGS, Cephac Europe, SAS). The concentrations of 6β-hydroxycortisol and cortisol in urine were determined using validated LC–MS/MS assays with an LLOQ of 10.0 ng/mL for 6β-hydroxycortisol and 1.0 ng/mL for cortisol. […]

mutant FLT3 = test system: mutant FLT3; design: method as in PMID 16857987; conditions: in vitro; read-out: half-maximal inhibitory concentration (IC50), mutant FLT3; cited from earlier work
CYP3A4/5 = test system: CYP3A4/5; design: method as in earlier work; conditions: in vitro; read-out: IC50, CYP3A4/5 activity (midazolam 1′-hydroxylation); cited from earlier work

Row | Compound | median t max prolonged in midostaurin + placebo arm compared with midostaurin + rifampicin arm [1] | IC50 (mutant FLT3) [nM] | IC50 (CYP3A4/5) [nM]
1 | CN(C(=O)c1ccccc1)[C@@H]1C[C@H]2O[C@@](C)([C@@H]1O)n1c3ccccc3c3c4c(c5c6ccccc6n2c5c31)C(=O)NC4 [CGP62221] | twofold |  | 
2 | CO[C@@H]1[C@H](N(C)C(=O)c2ccccc2)C[C@H]2O[C@]1(C)n1c3ccccc3c3c4c(c5c6ccccc6n2c5c31)C(=O)NC4 [Midostaurin] |  | 10 to 36 | 1500
